Here are results for two substances from doi:10.1101/216143.

The chains behind the UniProt entries cited, without tags or fusion partners. Where a name states a change or a piece, a line headed by the entry shows the natural chain unless it says otherwise.
UniProt Q9Y2J8: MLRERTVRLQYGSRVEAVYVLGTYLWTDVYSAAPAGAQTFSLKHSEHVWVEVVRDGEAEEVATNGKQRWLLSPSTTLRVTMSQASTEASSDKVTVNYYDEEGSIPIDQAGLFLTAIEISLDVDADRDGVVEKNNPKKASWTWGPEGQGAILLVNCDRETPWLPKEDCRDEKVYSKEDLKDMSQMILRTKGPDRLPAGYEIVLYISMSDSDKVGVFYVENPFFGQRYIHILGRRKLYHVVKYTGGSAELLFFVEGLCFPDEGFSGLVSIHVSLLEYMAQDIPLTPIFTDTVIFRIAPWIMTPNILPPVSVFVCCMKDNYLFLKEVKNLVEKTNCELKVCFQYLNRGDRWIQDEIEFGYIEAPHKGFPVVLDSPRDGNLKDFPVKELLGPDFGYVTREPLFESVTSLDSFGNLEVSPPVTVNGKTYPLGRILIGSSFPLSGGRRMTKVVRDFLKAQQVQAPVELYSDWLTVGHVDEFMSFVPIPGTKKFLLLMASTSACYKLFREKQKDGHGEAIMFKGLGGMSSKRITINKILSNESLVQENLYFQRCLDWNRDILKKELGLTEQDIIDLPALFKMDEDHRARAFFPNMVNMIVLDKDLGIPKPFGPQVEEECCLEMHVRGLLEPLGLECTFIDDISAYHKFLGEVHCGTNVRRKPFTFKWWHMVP
UniProt P50750: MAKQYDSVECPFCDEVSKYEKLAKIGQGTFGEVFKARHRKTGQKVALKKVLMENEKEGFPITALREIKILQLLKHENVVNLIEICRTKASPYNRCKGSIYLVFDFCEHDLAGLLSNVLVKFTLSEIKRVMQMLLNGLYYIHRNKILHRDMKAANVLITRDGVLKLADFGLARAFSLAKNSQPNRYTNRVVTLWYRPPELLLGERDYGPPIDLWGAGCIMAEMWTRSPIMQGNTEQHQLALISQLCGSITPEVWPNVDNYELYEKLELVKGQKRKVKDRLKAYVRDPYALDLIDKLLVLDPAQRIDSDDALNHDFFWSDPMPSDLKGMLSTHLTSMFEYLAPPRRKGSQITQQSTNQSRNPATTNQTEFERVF
UniProt O60563: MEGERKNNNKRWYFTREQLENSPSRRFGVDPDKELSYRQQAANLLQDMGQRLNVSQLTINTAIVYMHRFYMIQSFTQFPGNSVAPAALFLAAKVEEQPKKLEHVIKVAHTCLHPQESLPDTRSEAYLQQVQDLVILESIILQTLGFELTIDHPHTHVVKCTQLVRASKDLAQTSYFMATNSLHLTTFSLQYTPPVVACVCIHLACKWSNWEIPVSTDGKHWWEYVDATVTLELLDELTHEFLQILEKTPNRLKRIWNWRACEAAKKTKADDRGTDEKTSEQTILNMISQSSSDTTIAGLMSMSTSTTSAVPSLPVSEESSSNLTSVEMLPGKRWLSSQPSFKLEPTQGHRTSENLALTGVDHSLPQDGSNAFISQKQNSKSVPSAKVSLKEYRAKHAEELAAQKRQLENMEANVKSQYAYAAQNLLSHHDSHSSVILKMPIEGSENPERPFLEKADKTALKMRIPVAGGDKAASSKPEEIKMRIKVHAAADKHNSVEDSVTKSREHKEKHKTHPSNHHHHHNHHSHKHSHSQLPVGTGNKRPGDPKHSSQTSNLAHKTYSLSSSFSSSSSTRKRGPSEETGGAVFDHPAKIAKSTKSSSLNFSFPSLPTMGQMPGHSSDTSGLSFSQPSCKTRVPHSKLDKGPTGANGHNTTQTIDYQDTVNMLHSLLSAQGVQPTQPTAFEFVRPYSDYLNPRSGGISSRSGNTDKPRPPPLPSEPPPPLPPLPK

These are yes or no findings as the source states them, for the method shown. Binding seen in cells or lysates may run through a third protein. Some entries that bind do so weakly or less than the wild type.

For test [1], the target named is PADI2 (peptidyl arginine deiminase 2), endogenous (human (endogenous in T47D and MCF7)) (UniProt Q9Y2J8). Nature of the test: co-IP.
Test [2] addresses P-TEFb (positive transcription elongation factor b) kinase complex, endogenous (human (endogenous in T47D and Raji)) (UniProt P50750+O60563). Nature of the test: co-IP.

With “P-TEFb (positive transcription elongation factor b) kinase complex, endogenous (from UniProt P50750 1-372; O60563 1-726)”, the binding result in test [1] is recorded as “binds”.

Turning to “PADI2 (peptidyl arginine deiminase 2), endogenous (from UniProt Q9Y2J8 1-665) (enzyme)”, in test [2], the binding entry is “binds”.
